Record: PubChem BioAssay AID1259254 (NCATS, 2017)

- Assay: 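Gene knock-downs that lead to re-replication, shown by excess G2 DNA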 (primary screen)
- System: human HCT116 colorectal cancer cells
- Knock-down reagent: single siRNA against human genes
- Duration: 3 days
- Measured: 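Imaged Hoechst DNA stain sorts each cell into a cycle phase by DNA amount; per plate, G2 fraction set to 0% for non-targeting and 100% for GMNN siRNA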
- Reading the numbers: G2 robust z-score and G2 cells, % of GMNN control: higher = more G2 cells, more excess DNA replication
- Hit rule: 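Active siRNAs have a G2 robust z of 5 or more median absolute deviations over the median, which in these data means about 38% or higher of GMNN control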
In all, the deposit lists about 59,000 reagents; this is a part drawn at random. About 1,550 of them (2.6%) count as active. 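G2 share is only a proxy for re-replication; each gene was hit by three separate siRNAs, and active genes were retested.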 Unmarked entries are inactive. Reagents against one gene are numbered here. Further read-outs or replicates are left out here. Reagent sequences are not shown. Not given: the amount of reagent.

| gene symbol | siRNA no. | G2 robust z-score | G2 cells, % of GMNN control |
| --- | --- | --- | --- |
| SLC35E2B (GeneID 728661) | 1 | 0.754 | 8.27 |
| SLC35E2B (GeneID 728661) | 2 | -0.379 | 0.301 |
| SLC35E2B (GeneID 728661) | 3 | -0.547 | -0.881 |
| COQ8A (GeneID 56997) | 1 | 0.0104 | 3.04 |
| COQ8A (GeneID 56997) | 2 | -0.365 | 0.4 |
| COQ8A (GeneID 56997) | 3 | -1.07 | -4.56 |
| NUP58 (GeneID 9818) | 1 | 0.963 | 9.74 |
| NUP58 (GeneID 9818) | 2 | 0.0886 | 3.59 |
| NUP58 (GeneID 9818) | 3 | 0.444 | 6.09 |
| TMEM229B (GeneID 161145) | 1 | -0.0717 | 2.46 |
| TMEM229B (GeneID 161145) | 2 | 1.85 | 16 |
| TMEM229B (GeneID 161145) | 3 | -0.142 | 1.97 |
| PTCD1 (GeneID 26024) | 1 | 0.829 | 8.8 |
| PTCD1 (GeneID 26024) | 2 | 2.98 | 23.9 |
| PTCD1 (GeneID 26024) | 3 | 0.991 | 9.94 |
| WDR49 (GeneID 151790) | 1 | -0.473 | -0.363 |
| WDR49 (GeneID 151790) | 2 | -1.07 | -4.56 |
| WDR49 (GeneID 151790) | 3 | 0.106 | 3.71 |
| KDM7A (GeneID 80853) | 1 | -0.621 | -1.4 |
| KDM7A (GeneID 80853) | 2 | 2.14 | 18 |
| KDM7A (GeneID 80853) | 3 | -0.502 | -0.564 |
| PDE4DIP (GeneID 9659) | 1 | 1.45 | 13.2 |
| PDE4DIP (GeneID 9659) | 2 | 1.85 | 16 |
| PDE4DIP (GeneID 9659) | 3 | 0.441 | 6.07 |
| CYP2C19 (GeneID 1557) | 1 | 0.851 | 8.96 |
| CYP2C19 (GeneID 1557) | 2 | 2.55 | 20.9 |
| CYP2C19 (GeneID 1557) | 3 | 2.85 | 23 |
| ID1 (GeneID 3397) | 1 | 0.17 | 4.16 |
| ID1 (GeneID 3397) | 2 | -0.661 | -1.68 |
| ID1 (GeneID 3397) | 3 | -0.266 | 1.1 |
| NXT1 (GeneID 29107) | 1 | 1.59 | 14.1 |
| NXT1 (GeneID 29107) | 2 | -0.466 | -0.312 |
| NXT1 (GeneID 29107) | 3 | 1.48 | 13.4 |
| KCTD6 (GeneID 200845) | 1 | 0.339 | 5.35 |
| KCTD6 (GeneID 200845) | 2 | -0.663 | -1.69 |
| KCTD6 (GeneID 200845) | 3 | 0.16 | 4.09 |
| PPP2R3A (GeneID 5523) | 1 | 0.75 | 8.25 |
| PPP2R3A (GeneID 5523) | 2 | 0.157 | 4.07 |
| PPP2R3A (GeneID 5523) | 3 | 0.106 | 3.71 |
| CREB1 (GeneID 1385) | 1 | 0.599 | 7.19 |
| CREB1 (GeneID 1385) | 2 | -0.747 | -2.29 |
| CREB1 (GeneID 1385) | 3 | -0.439 | -0.124 |
| LOC729770 (retired record) (GeneID 729770) | 1 | -0.0171 | 2.85 |
| LOC729770 (retired record) (GeneID 729770) | 2 | -0.858 | -3.07 |
| LOC729770 (retired record) (GeneID 729770) | 3 | 0.0483 | 3.31 |
| SSR3 (GeneID 6747) | 1 | -0.734 | -2.2 |
| SSR3 (GeneID 6747) | 2 | 2.32 | 19.3 |
| SSR3 (GeneID 6747) | 3 | 2.1 | 17.8 |
